# Source: PubChem BioAssay AID504444 (National Center for Advancing Translational Sciences (NCATS), 2011)
# Screen size: about 360,000 compounds; about 7,500 (2.1%) were called active. The inconclusive results got no clear call from the source; some entries with a clear call stand among them for comparison. Calls follow the shape of the dose curve; as a rule, active = well fitted inhibition curve with a large enough effect; inconclusive = small, poorly fitted or top-dose-only effect, or effect the other way; inactive = flat fitted curve, though single readings scatter. Potencies of inconclusive entries are doubtful fits and often do not repeat.
# Assay: Nrf2 qHTS screen for inhibitors; also: nearly all actives have a fitted effect of over 60% in size
# Settings: A549 ARE-Fluc reporter, luciferase luminescence, 18-24 h; series mostly up to 46 µM
# Outline: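 In this cell-based qHTS, ARE-driven firefly luciferase in A549 cells reports Nrf2 activity; the luminescent signal after BugLite lysis is the measured value, with a prior CellTiter-Fluor read for cell health.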
# Potency is read from the fitted curve at half-maximal effect.
row,Compound,Potency
1,Cc1cccc(C(=O)NCc2cn3cccc(C)c3n2)c1,inactive
2,C=CCOC(=O)C1=C(C)Nc2nnnn2C1c1cccc(OC)c1OC (stereo unspecified),inactive
3,N#Cc1c(C(F)(F)F)cc(-c2ccc(Cl)cc2)[nH]c1=O,active: 16.4 µM
4,COc1ccc([C@H]2CC(=O)C=C(c3c(OC)cccc3OC)C2)cc1,"inconclusive: 25.9 µM [falling, single point]"
5,Cc1cc2ccc(C)c(C)c2nc1SCC(=O)c1cccs1,inactive
6,Cc1cc(N)n2nc(-c3ccccc3)cc2n1,"inconclusive: 0.92 µM [activator, full curve]"
7,COc1ccc(/C=C\c2onc(C)c2S(=O)(=O)N2CCC(C(=O)Nc3ccc(C)c(F)c3)CC2)cc1,"inconclusive: 20.6 µM [falling, single point]"
8,Cc1ccccc1C(=O)NC(NC(=O)c1ccccc1C)c1cccc([N+](=O)[O-])c1,"inconclusive: 23.1 µM [falling, partial curve, poor fit]"
9,Cn1c(-c2ccccc2)c(C(=O)CCl)c2ccccc21,inactive
10,COc1ccccc1CNC(=O)c1cnn(-c2ccc(F)cc2F)c1C1CCN(C(=O)OC(C)(C)C)CC1,"inconclusive: 6.51 µM [activator, single point]"
11,COc1ccc(NC(=O)c2ccco2)c(OC)c1,"inconclusive: 2.31 µM [activator, partial curve, poor fit]"
12,COc1ccc(NS(=O)(=O)c2cc(NC(=O)/C=C/c3ccccc3OC)ccc2N2CCCCC2)cc1,"inconclusive: 0.103 µM [falling, full curve, poor fit]"
13,COc1ccc(-c2noc(CCC(=O)Nc3ccccc3Cl)n2)cc1OC,"inconclusive: 29.1 µM [falling, single point]"
14,CCN(CCCn1c(SCC#N)nc2ccccc2c1=O)c1ccccc1,"inconclusive: 7.31 µM [falling, partial curve]"
15,O=C(NC1CCCC1)C(c1ccccc1F)N(C(=O)c1csnn1)c1ccccc1 (stereo unspecified),inactive
16,Cc1ccc(C2Nc3ccccc3C(=O)N2Cc2ccco2)cc1 (stereo unspecified),inactive
17,COC(=O)CNC(=O)CCc1nnc(C2(c3ccc(Cl)cc3)CCC2)o1,"inconclusive: 29.1 µM [activator, single point]"
18,Cc1ccccc1OCC(=O)NCC(=O)OCC(=O)c1ccc(Br)cc1,inactive
19,Cc1c(C(=O)OCC(=O)N2CC(=O)Nc3ccccc32)oc2ccc(Br)cc12,"inconclusive: 32.6 µM [falling, single point]"
20,O=C(Nc1ccc(N2CCOCC2)c(Cl)c1)c1c(F)c(F)c(F)c(F)c1F,"inconclusive: 2.59 µM [activator, full curve, poor fit]"
21,CCOC(=O)N1CCN(c2nc(C(F)(F)F)nc3c(C)cc(C)cc23)CC1,active: 23.1 µM
22,COc1ccccc1CNC(=O)c1cn(C)c2ccc(S(=O)(=O)N3CCCC3)cc2c1=O,"inconclusive: 18.4 µM [falling, single point]"

row,Compound,Potency
1,O=C(N/N=C/c1cc([N+](=O)[O-])ccc1O)C(O)(c1ccccc1)c1ccccc1,"inconclusive: 0.82 µM [falling, full curve, poor fit]"
2,O=C1N[C@@H](Cc2ccccc2)C(=O)N2[C@@H]3N(S(=O)(=O)c4ccccc4)c4ccccc4[C@]3(Br)C[C@@H]12,inactive
3,Cc1cccc(C)c1NC(=O)c1c(O)c2ccccc2[nH]c1=O,"inconclusive: 7.31 µM [falling, partial curve, poor fit]"
4,CCOC(=O)c1sc2ncc([N+](=O)[O-])cc2c1N,"inconclusive: 5.8 µM [falling, single point]"
5,COc1cccc(CNC(=O)c2ccc(Cl)c(S(=O)(=O)N3CCOCC3)c2)c1,"inconclusive: 23.1 µM [falling, single point]"
6,COCCn1c(SCC(=O)c2[nH]c(C)c(C(C)=O)c2C)nc2ccccc2c1=O,"inconclusive: 23.1 µM [falling, single point]"
7,CC(C)c1ccc(-c2noc(SCC(=O)N3CCCCC3)n2)cc1,"inconclusive: 5.8 µM [activator, full curve]"
8,CCOC(=O)c1c(NC(=O)CN2C(=O)NC(C)(c3ccccc3)C2=O)sc(C)c1C (stereo unspecified),"inconclusive: 0.92 µM [activator, full curve, poor fit]"
9,CC(=O)Nc1nonc1-c1nnc(SCc2cccc(Br)c2)n1C,inactive
10,CN1C(=O)/C(=C/c2ccc(O)c([N+](=O)[O-])c2)NC1=S,inactive
11,Cc1ccc(OCC(=O)Nc2cccc(C)n2)c(C)c1,"inconclusive: 14.6 µM [activator, partial curve]"
12,Cn1c(=O)c2c(nc(CN3CCN(C(=O)c4ccco4)CC3)n2Cc2cccc(Cl)c2)n(C)c1=O,"inconclusive: 0.164 µM [falling, partial curve, poor fit]"
13,CCN(CC)CCn1c(O)c(N=O)c2ccccc21,inactive
14,Cc1ccc(-c2csc(NC(=O)COC(=O)c3cccc(S(=O)(=O)N4CCOCC4)c3)n2)cc1,"inconclusive: 1.84 µM [activator, full curve, poor fit]"
15,CC(OC(=O)c1ccc(S(=O)(=O)N(C)c2ccccc2)cc1)C(=O)NCCC1=CCCCC1 (stereo unspecified),"inconclusive: 29.1 µM [falling, single point]"
16,O=C1C2C3CCC(C3NCc3ccccc3)C2C(=O)N1Cc1ccccc1 (stereo unspecified),"inconclusive: 29.1 µM [falling, single point]"
17,Nc1c(Cl)cc(C(=O)NC2CC2)cc1Cl,"inconclusive: 20.6 µM [falling, single point]"
18,O=C(NCC(=O)N1CCN(C/C=C/c2ccccc2)CC1)c1ccc(OC(F)F)cc1,"inconclusive: 16.4 µM [falling, partial curve, poor fit]"
19,Fc1ccc(-c2nc3c(Cl)cc(C(F)(F)F)cn3c2Cl)cc1,"inconclusive: 14.6 µM [activator, partial curve]"
20,CCn1c(=O)n(CC)c2cc(S(=O)(=O)Nc3ccccc3C)c(C)cc21,"inconclusive: 23.1 µM [falling, partial curve, poor fit]"
21,CCOc1cc(C2C(C(C)=O)=C(C)Nc3ncnn32)ccc1O (stereo unspecified),"inconclusive: 29.1 µM [falling, single point]"
22,CC1CCN(S(=O)(=O)c2ccc3nc(N4CCN(c5ccccc5F)CC4)ccc3c2)CC1,"inconclusive: 25.9 µM [activator, single point]"

row,Compound,Potency
1,COc1ccc(C2C3=C(CC(C)(C)CC3=O)Oc3ncn(Cc4ccccc4)c(=N)c32)cc1 (stereo unspecified),"inconclusive: 29.1 µM [falling, single point]"
2,O=C(NCc1ccc2c(c1)OCO2)c1ccccc1,inactive
3,Cc1ccc(-c2onc(C)c2C)cc1S(=O)(=O)NC1CCC(C)CC1 (stereo unspecified),"inconclusive: 29.1 µM [falling, single point]"
4,C(#Cc1ccccc1)C[N+]1(CC#Cc2ccccc2)CCCCC1,active: 11.6 µM
5,N#Cc1cc2c(nc1SCc1ccncc1)CCC2,inactive
6,CSc1cccc(NC(=O)c2ccc3c(c2)CCCN3S(C)(=O)=O)c1,"inconclusive: 29.1 µM [falling, single point]"
7,CCCCCCn1c(/C=C/c2ccccc2)nc2ccccc21,"inconclusive: 18.4 µM [activator, partial curve]"
8,COc1ccc(NC(=O)c2ccc3[nH]c(C)cc(=O)c3c2)cc1,"inconclusive: 25.9 µM [activator, single point]"
9,O=C(NCCC1=CCCCC1)c1cnccn1,"inconclusive: 2.91 µM [activator, full curve]"
10,O=C(CC(C(=O)O)c1ccccc1)Nc1ccccc1 (stereo unspecified),"inconclusive: 41.1 µM [falling, partial curve, poor fit]"
11,CSc1nccc(N/N=C/c2ccccc2)n1,"inconclusive: 6.51 µM [activator, partial curve]"
12,c1ccc(Nc2ncnc3c2oc2ccccc23)cc1,"inconclusive: 23.1 µM [activator, partial curve, poor fit]"
13,CC1CCCCC1NC(=O)/C=C/c1nc2ccccc2s1 (stereo unspecified),"inconclusive: 23.1 µM [activator, partial curve, poor fit]"
14,COc1ccc(C(=O)c2ccc(N3CCN(C(=O)c4ccc(F)cc4)CC3)c(F)c2)cc1Br,"inconclusive: 8.2 µM [falling, partial curve, poor fit]"
15,N#Cc1ccccc1COc1ccc(/C=C/C(=O)O)cc1,active: 2.31 µM
16,CCN(CC)C(=O)[C@H]1CC(CC(=O)NCC23CC4CC(CC(C4)C2)C3)C(=O)N2CCc3c([nH]c4ccccc34)[C@]12C (stereo partly specified),"inconclusive: 20.6 µM [falling, single point]"
17,Cc1csc2ncnc(N3CCN(C(=S)Nc4ccc(F)cc4F)CC3)c12,"inconclusive: 23.1 µM [falling, single point]"
18,CC(C)CC1(C)N=C(c2ccccc2)C(=S)N1 (stereo unspecified),"inconclusive: 4.11 µM [falling, full curve]"
19,O=C1NC(=S)N(C(=O)c2ccc(F)cc2)/C1=C/c1ccccc1,"inconclusive: 20.6 µM [falling, partial curve]"
20,CCSc1nnc(NC(=O)c2cccc(OCc3c(C)noc3C)c2)s1,"inconclusive: 23.1 µM [falling, single point]"
21,Cc1ccc(NC(=O)N2CCc3ccccc32)cc1C,"inconclusive: 0.116 µM [activator, full curve, poor fit]"
22,CCn1c(=O)cc(SCC(=O)NCc2ccccn2)c2ccccc21,"inconclusive: 3.66 µM [falling, partial curve, poor fit]"

# Grouped by structure, those above containing an NH in an aromatic ring.
row,Compound,Potency
3,N#Cc1c(C(F)(F)F)cc(-c2ccc(Cl)cc2)[nH]c1=O,active: 16.4 µM
3,Cc1cccc(C)c1NC(=O)c1c(O)c2ccccc2[nH]c1=O,"inconclusive: 7.31 µM [falling, partial curve, poor fit]"
6,COCCn1c(SCC(=O)c2[nH]c(C)c(C(C)=O)c2C)nc2ccccc2c1=O,"inconclusive: 23.1 µM [falling, single point]"
8,COc1ccc(NC(=O)c2ccc3[nH]c(C)cc(=O)c3c2)cc1,"inconclusive: 25.9 µM [activator, single point]"
16,CCN(CC)C(=O)[C@H]1CC(CC(=O)NCC23CC4CC(CC(C4)C2)C3)C(=O)N2CCc3c([nH]c4ccccc34)[C@]12C (stereo partly specified),"inconclusive: 20.6 µM [falling, single point]"
